Data: publication PMC11024185
Results are given in words; binding and its absence hold for the method and conditions named. In cells and extracts the contact can be indirect. These calls come from enrichment with a bait or labelling near it, and not all partners need be listed. Where a sequence is shown, tags or fusion partners need not be part of it. Values belong to the binder of their own block, whether it stands above or below them.

Experiments:
[1] = target: T1, Ssf1-3xFLAG-3C-2xProteinA (S. cerevisiae) (UniProt P38789); experiment: affinity purification with mass spectrometry; split-tag purification of pre-60S particles from steady state DBP10 yeast: IgG Sepharose on Ssf1-2xProteinA, 3C cleavage, then Strep-Tactin on 2xStrep-Dbp10, desthiobiotin elution; buffers with 50 µM ADP-BeF3; Coomassie-stained 4-20% SDS-PAGE, bands named by molecular weight, ambiguous bands by mass spectrometry
T1 sequence: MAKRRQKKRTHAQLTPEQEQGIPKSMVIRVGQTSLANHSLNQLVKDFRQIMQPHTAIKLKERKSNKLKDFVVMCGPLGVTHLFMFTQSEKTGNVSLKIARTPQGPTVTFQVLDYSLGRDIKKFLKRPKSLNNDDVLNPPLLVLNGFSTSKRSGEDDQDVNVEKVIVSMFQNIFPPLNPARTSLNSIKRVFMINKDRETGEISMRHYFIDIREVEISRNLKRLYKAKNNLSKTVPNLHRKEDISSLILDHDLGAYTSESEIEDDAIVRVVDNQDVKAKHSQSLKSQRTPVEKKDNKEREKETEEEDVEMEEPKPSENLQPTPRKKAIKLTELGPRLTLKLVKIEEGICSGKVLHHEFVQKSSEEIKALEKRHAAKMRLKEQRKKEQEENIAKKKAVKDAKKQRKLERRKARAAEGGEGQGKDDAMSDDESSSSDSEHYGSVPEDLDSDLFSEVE

[2] = target: T1, Ssf1-3xFLAG-3C-2xProteinA (S. cerevisiae); experiment: affinity purification with mass spectrometry; split-tag purification of pre-60S particles from yeast overexpressing dbp10 R522V (β-estradiol, 1 h): IgG Sepharose on Ssf1-2xProteinA, 3C cleavage, then Strep-Tactin on Dbp10 R522V, bdNEDD8 protease elution; 50 mM Bis-Tris-Propane pH 8.0, 125 mM NaCl, 25 mM KCl, 10 mM MgCl2; Coomassie-stained 4-20% SDS-PAGE, bands named by molecular weight, ambiguous bands by mass spectrometry
[3] = target: T2, Noc2-3xFLAG-3C-2xProteinA (S. cerevisiae) (UniProt P39744); experiment: affinity purification with mass spectrometry; split-tag purification of pre-60S particles from SPB4-AID yeast without and with auxin (0.5 mM IAA, 45 min): IgG Sepharose on Noc2-2xProteinA, 3C cleavage, then Strep-Tactin on 2xStrep-Dbp10; buffers with 50 µM ADP-BeF3; Coomassie-stained 4-20% SDS-PAGE, bands named by molecular weight, ambiguous bands by mass spectrometry; auxin gave ~10-fold enrichment of the particle
T2 sequence: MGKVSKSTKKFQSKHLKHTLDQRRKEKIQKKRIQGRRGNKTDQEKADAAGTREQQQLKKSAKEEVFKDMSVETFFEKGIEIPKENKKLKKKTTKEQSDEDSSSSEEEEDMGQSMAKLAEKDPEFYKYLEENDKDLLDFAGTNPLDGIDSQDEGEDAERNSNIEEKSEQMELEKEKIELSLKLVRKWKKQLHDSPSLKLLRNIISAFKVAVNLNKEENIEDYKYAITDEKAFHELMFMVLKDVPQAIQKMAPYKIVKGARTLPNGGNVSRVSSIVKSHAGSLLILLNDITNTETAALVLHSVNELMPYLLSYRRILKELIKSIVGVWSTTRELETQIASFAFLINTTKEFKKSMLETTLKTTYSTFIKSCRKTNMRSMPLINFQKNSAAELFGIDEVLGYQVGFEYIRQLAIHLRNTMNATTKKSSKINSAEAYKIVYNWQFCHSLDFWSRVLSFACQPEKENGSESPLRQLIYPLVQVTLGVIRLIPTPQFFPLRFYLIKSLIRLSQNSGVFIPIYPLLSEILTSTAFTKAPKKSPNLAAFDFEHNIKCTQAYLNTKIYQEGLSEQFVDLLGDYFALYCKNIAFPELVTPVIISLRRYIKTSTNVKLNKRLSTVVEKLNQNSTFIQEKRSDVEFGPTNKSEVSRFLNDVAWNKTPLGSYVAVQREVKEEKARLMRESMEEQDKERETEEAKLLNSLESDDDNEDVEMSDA

[4] = target: T1, Ssf1-3xFLAG-3C-2xProteinA (S. cerevisiae); experiment: affinity purification with mass spectrometry; purification of pre-60S intermediates from a drs1 R569Q strain by tags on Drs1 R569Q (3x-Strep) and Ssf1 (2x-ProtA); Coomassie-stained 4-20% SDS-PAGE

binding [1]: binds | binding [2]: binds | binding [3]: binds | binding [4]: binds
B1: Nog1 (protein, UniProt Q02892 1-647)
chain: MQLSWKDIPTVAPANDLLDIVLNRTQRKTPTVIRPGFKITRIRAFYMRKVKYTGEGFVEKFEDILKGFPNINDVHPFHRDLMDTLYEKNHYKISLAAISRAKSLVEQVARDYVRLLKFGQSLFQCKQLKRAALGRMATIVKKLRDPLAYLEQVRQHIGRLPSIDPNTRTLLICGYPNVGKSSFLRCITKSDVDVQPYAFTTKSLYVGHFDYKYLRFQAIDTPGILDRPTEEMNNIEMQSIYAIAHLRSCVLYFMDLSEQCGFTIEAQVKLFHSIKPLFANKSVMVVINKTDIIRPEDLDEERAQLLESVKEVPGVEIMTSSCQLEENVMEVRNKACEKLLASRIENKLKSQSRINNVLNKIHVAQPQARDDVKRTPFIPESVKNLKKYDPEDPNRRKLARDIEAENGGAGVFNVNLKDKYLLEDDEWKNDIMPEILDGKNVYDFLDPEIAAKLQALEEEEEKLENEGFYNSDDEEEIYDGFEASEVDDIKEKAAWIRNRQKTMIAEARNRKSLKNKAIMPRSKLTKSFGKMEEHMSTLGHDMSALQDKQNRAARKNRYVERGSDVVFGDQDALTASTENGVKLRQTDRLLDGVADGSMRSKADRMAKMERRERNRHAKQGESDRHNAVSLSKHLFSGKRGVGKTDFR

binding [1]: binds | binding [2]: binds | binding [3]: binds | binding [4]: binds
B2: Nop2 (protein, UniProt P40991 1-618)
chain: MGSRRHKNKQAAPPTLEEFQARKEKKANRKLEKGKRPSTTQGDEVSDRKKKKSKPFKKSRKEEEEVVEEDKDLPEVDLEELSKARKSLFDDEEDDDEAGLVDEELKDEFDLEQEYDYDEDEDNDAHPIFSDDDDEADLEELNAQNMEALSKKLDEEEAEEAEEAEMELVEAENMQPRADILPTEEQEEMMAQETPNLTSTRTRMIEIVKVLENFKTLGAEGRSRGEYVDRLLKDICEYFGYTPFLAEKLFNLFSPAEAMEFFEANEIARPITIRTNTLKTRRRDLAQTLVNRGVNLQPIGSWTKVGLQIFDSQVPIGATPEYLAGHYILQAASSFLPVIALDPHENERILDMAAAPGGKTTYISAMMKNTGCVFANDANKSRTKSLIANIHRLGCTNTIVCNYDAREFPKVIGGFDRILLDAPCSGTGVIGKDQSVKVSRTEKDFIQIPHLQKQLLLSAIDSVDCNSKHGGVIVYSTCSVAVEEDEAVIDYALRKRPNVKLVDTGLAIGKEAFTSYRGKKFHPSVKLARRYYPHTYNVDGFFVAKFQKIGPSSFDDNQASAKEKETAARKEALEEGIIHSDFATFEDEEDDKYIEKSVKNNLLKKGVNPKAKRPSNEK
